Measurements: article PMC8876890, “Engineering Chimeras by Fusing Plant Receptor-like Kinase EMS1 and BRI1 Reveals the Two Receptors’ Structural Specificity and Molecular Mechanisms” (International Journal of Molecular Sciences, 2022)
These are yes or no findings as the source states them, for the method shown. Binding seen in cells or lysates may run through a third protein. Some binding calls cover weakened binding; strength is not graded here. Tags and fused reporters may be left off the sequences shown.

Sequences of proteins named here, by UniProt entry; tags and fusion partners are left off.
UniProt Q8W4L3: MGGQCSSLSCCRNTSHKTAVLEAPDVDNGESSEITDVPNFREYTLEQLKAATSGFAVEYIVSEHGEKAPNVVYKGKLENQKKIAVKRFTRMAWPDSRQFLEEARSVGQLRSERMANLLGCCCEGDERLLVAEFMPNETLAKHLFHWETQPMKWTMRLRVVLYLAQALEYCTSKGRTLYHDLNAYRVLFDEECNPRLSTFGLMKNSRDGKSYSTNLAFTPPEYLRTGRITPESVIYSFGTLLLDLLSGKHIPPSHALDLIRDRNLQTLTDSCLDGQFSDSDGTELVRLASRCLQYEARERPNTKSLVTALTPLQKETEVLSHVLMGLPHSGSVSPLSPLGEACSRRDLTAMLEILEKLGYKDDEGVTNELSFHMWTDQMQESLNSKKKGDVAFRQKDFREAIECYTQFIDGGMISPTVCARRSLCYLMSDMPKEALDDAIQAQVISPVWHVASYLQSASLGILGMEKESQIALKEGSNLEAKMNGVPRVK
UniProt Q944A7: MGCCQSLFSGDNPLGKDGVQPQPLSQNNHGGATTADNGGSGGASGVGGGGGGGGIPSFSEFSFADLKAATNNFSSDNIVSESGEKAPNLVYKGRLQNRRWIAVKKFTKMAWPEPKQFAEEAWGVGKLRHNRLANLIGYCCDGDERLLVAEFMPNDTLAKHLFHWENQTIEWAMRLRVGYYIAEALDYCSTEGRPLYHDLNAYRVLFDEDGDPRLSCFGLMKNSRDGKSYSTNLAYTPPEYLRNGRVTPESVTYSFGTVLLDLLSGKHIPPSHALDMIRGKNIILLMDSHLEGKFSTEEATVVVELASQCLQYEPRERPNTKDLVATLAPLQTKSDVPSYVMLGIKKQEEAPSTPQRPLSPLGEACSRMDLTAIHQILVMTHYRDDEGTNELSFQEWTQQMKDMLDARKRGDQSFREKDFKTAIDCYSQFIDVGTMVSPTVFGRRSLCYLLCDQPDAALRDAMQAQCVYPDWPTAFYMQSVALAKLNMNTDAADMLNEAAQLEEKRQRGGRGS

T1: EMS1-nYFP (Arabidopsis thaliana) (UniProt Q9LYN8)
T1 sequence: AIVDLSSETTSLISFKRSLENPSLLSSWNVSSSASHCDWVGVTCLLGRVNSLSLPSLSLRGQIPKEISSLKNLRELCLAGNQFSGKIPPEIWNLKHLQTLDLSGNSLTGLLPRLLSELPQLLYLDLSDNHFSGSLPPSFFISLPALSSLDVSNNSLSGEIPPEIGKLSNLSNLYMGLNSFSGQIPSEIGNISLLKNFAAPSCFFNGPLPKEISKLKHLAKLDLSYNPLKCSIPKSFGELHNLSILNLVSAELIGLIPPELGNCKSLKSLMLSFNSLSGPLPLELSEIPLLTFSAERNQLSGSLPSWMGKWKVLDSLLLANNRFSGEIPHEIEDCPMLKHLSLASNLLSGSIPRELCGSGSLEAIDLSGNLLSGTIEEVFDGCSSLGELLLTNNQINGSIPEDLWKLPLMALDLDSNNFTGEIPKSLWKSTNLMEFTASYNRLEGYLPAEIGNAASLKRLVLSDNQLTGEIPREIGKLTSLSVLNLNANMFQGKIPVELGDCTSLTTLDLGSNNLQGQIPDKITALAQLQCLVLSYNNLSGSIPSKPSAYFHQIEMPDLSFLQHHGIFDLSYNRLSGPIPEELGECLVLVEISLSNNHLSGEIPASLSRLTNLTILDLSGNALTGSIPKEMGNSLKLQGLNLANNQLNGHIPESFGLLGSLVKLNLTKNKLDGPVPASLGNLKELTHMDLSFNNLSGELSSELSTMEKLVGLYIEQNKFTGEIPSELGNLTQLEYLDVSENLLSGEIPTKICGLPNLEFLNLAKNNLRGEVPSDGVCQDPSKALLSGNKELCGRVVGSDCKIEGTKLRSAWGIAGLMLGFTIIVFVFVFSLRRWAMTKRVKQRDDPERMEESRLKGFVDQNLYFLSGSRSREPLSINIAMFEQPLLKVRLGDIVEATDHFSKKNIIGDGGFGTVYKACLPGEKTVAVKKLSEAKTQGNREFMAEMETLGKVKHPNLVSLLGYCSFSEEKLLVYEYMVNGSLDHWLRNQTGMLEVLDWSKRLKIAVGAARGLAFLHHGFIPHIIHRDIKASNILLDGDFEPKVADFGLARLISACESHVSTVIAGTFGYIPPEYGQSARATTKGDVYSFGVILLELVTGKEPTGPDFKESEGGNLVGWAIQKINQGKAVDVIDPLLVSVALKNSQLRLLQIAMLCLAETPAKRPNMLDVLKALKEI

B1: EMS1-GFP (receptor, UniProt Q9LYN8 19-1192)
chain: AIVDLSSETTSLISFKRSLENPSLLSSWNVSSSASHCDWVGVTCLLGRVNSLSLPSLSLRGQIPKEISSLKNLRELCLAGNQFSGKIPPEIWNLKHLQTLDLSGNSLTGLLPRLLSELPQLLYLDLSDNHFSGSLPPSFFISLPALSSLDVSNNSLSGEIPPEIGKLSNLSNLYMGLNSFSGQIPSEIGNISLLKNFAAPSCFFNGPLPKEISKLKHLAKLDLSYNPLKCSIPKSFGELHNLSILNLVSAELIGLIPPELGNCKSLKSLMLSFNSLSGPLPLELSEIPLLTFSAERNQLSGSLPSWMGKWKVLDSLLLANNRFSGEIPHEIEDCPMLKHLSLASNLLSGSIPRELCGSGSLEAIDLSGNLLSGTIEEVFDGCSSLGELLLTNNQINGSIPEDLWKLPLMALDLDSNNFTGEIPKSLWKSTNLMEFTASYNRLEGYLPAEIGNAASLKRLVLSDNQLTGEIPREIGKLTSLSVLNLNANMFQGKIPVELGDCTSLTTLDLGSNNLQGQIPDKITALAQLQCLVLSYNNLSGSIPSKPSAYFHQIEMPDLSFLQHHGIFDLSYNRLSGPIPEELGECLVLVEISLSNNHLSGEIPASLSRLTNLTILDLSGNALTGSIPKEMGNSLKLQGLNLANNQLNGHIPESFGLLGSLVKLNLTKNKLDGPVPASLGNLKELTHMDLSFNNLSGELSSELSTMEKLVGLYIEQNKFTGEIPSELGNLTQLEYLDVSENLLSGEIPTKICGLPNLEFLNLAKNNLRGEVPSDGVCQDPSKALLSGNKELCGRVVGSDCKIEGTKLRSAWGIAGLMLGFTIIVFVFVFSLRRWAMTKRVKQRDDPERMEESRLKGFVDQNLYFLSGSRSREPLSINIAMFEQPLLKVRLGDIVEATDHFSKKNIIGDGGFGTVYKACLPGEKTVAVKKLSEAKTQGNREFMAEMETLGKVKHPNLVSLLGYCSFSEEKLLVYEYMVNGSLDHWLRNQTGMLEVLDWSKRLKIAVGAARGLAFLHHGFIPHIIHRDIKASNILLDGDFEPKVADFGLARLISACESHVSTVIAGTFGYIPPEYGQSARATTKGDVYSFGVILLELVTGKEPTGPDFKESEGGNLVGWAIQKINQGKAVDVIDPLLVSVALKNSQLRLLQIAMLCLAETPAKRPNMLDVLKALKEI

Experiments:
[1] = target: T1, EMS1-nYFP (Arabidopsis thaliana); experiment: split reporter; BiFC in N. benthamiana leaf epidermal cells; nYFP and cYFP fusions co-expressed by Agrobacterium infiltration with p19; confocal microscopy after 36-48 h
[2] = target: BSK3-FLAG (UniProt Q8W4L3); experiment: co-IP; total protein of transgenic Arabidopsis Col-0 seedlings (10 mM HEPES pH 7.5, 100 mM NaCl, 1 mM EDTA, 10% glycerol, 0.5% Triton X-100); precipitated with anti-FLAG M2 affinity gel, blot with anti-GFP and anti-FLAG
[3] = target: BSK1-FLAG (UniProt Q944A7); experiment: as above

Molecule | binding [1] | binding [2] | binding [3]
BSK1-cYFP (from UniProt Q944A7 1-512) | binds |  | 
BSK3-cYFP (from UniProt Q8W4L3 1-489) | binds |  | 
B1 |  | binds | binds
